Data: article PMC8497546
These are yes or no findings as the source states them, for the method shown. In cells and extracts the contact can be indirect. Some results given as binding are weak or reduced against the parent protein; the word gives no strength.

Protein sequences, listed by entry. Tags and fused reporters are not part of them. Lines headed by an entry give the natural chain unless they say otherwise; changes in a name come on top.
UniProt Q9Y397: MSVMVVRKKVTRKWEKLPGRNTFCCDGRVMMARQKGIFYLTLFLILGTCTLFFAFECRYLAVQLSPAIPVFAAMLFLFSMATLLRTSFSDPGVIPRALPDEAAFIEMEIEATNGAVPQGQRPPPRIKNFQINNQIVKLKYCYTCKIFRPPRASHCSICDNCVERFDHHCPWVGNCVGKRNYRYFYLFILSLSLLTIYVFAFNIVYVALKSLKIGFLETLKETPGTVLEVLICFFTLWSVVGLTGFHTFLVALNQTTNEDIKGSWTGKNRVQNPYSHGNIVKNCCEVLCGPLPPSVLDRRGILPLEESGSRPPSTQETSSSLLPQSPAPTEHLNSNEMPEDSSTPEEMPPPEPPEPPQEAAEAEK
UniProt P11166: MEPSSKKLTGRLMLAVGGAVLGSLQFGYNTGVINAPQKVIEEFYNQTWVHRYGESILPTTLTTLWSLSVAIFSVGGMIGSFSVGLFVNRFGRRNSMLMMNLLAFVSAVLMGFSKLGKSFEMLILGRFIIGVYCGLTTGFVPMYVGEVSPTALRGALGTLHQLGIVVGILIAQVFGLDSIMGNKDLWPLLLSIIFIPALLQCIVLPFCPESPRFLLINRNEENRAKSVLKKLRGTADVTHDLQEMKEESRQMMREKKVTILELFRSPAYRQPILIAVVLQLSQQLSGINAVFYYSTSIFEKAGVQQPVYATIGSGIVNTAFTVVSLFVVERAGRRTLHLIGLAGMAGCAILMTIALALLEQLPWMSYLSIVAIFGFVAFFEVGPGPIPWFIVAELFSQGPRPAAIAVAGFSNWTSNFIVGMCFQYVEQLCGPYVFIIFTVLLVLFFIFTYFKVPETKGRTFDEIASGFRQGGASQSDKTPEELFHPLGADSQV

Target: DHHC9 in U87 and T98G cells (human) (UniProt Q9Y397)
Assay: co-IP; U87 and T98 cell lysates (50 mM Tris-HCl pH 7.5, 0.1% SDS, 1% Triton X-100, 150 mM NaCl, 1 mM DTT, 0.5 mM EDTA); specific antibodies overnight, protein A or G agarose beads 1 h at 4 °C; immunoblot

- binding: binds
Substance: GLUT1 in U87 and T98G cells (from UniProt P11166 1-492)
